Results taken from paper PMC10006232.
Where two headings read alike, the source gives them in different places. These are yes or no findings as the source states them, for the method shown. For part of these data: Binding seen in cells or lysates may run through a third protein. Some binding calls cover weakened binding; strength is not graded here. For part of these data: Where a sequence is shown, tags or fusion partners need not be part of it.

By UniProt entry, the sequences of proteins in these tests, tags left out.
UniProt P14618: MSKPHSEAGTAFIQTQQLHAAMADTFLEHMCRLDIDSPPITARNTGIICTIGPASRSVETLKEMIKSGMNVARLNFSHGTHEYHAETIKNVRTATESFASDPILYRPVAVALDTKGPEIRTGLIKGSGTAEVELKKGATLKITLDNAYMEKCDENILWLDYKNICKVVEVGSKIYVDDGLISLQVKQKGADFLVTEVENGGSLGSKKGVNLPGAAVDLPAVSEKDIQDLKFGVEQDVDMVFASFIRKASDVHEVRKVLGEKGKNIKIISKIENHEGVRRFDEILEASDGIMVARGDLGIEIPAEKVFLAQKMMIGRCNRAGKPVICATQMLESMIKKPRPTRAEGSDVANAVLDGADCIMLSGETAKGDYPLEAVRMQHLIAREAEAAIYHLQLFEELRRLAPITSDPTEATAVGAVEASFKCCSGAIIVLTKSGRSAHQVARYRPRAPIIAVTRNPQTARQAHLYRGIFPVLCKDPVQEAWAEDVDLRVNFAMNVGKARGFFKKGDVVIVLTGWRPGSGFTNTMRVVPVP
UniProt Q09472: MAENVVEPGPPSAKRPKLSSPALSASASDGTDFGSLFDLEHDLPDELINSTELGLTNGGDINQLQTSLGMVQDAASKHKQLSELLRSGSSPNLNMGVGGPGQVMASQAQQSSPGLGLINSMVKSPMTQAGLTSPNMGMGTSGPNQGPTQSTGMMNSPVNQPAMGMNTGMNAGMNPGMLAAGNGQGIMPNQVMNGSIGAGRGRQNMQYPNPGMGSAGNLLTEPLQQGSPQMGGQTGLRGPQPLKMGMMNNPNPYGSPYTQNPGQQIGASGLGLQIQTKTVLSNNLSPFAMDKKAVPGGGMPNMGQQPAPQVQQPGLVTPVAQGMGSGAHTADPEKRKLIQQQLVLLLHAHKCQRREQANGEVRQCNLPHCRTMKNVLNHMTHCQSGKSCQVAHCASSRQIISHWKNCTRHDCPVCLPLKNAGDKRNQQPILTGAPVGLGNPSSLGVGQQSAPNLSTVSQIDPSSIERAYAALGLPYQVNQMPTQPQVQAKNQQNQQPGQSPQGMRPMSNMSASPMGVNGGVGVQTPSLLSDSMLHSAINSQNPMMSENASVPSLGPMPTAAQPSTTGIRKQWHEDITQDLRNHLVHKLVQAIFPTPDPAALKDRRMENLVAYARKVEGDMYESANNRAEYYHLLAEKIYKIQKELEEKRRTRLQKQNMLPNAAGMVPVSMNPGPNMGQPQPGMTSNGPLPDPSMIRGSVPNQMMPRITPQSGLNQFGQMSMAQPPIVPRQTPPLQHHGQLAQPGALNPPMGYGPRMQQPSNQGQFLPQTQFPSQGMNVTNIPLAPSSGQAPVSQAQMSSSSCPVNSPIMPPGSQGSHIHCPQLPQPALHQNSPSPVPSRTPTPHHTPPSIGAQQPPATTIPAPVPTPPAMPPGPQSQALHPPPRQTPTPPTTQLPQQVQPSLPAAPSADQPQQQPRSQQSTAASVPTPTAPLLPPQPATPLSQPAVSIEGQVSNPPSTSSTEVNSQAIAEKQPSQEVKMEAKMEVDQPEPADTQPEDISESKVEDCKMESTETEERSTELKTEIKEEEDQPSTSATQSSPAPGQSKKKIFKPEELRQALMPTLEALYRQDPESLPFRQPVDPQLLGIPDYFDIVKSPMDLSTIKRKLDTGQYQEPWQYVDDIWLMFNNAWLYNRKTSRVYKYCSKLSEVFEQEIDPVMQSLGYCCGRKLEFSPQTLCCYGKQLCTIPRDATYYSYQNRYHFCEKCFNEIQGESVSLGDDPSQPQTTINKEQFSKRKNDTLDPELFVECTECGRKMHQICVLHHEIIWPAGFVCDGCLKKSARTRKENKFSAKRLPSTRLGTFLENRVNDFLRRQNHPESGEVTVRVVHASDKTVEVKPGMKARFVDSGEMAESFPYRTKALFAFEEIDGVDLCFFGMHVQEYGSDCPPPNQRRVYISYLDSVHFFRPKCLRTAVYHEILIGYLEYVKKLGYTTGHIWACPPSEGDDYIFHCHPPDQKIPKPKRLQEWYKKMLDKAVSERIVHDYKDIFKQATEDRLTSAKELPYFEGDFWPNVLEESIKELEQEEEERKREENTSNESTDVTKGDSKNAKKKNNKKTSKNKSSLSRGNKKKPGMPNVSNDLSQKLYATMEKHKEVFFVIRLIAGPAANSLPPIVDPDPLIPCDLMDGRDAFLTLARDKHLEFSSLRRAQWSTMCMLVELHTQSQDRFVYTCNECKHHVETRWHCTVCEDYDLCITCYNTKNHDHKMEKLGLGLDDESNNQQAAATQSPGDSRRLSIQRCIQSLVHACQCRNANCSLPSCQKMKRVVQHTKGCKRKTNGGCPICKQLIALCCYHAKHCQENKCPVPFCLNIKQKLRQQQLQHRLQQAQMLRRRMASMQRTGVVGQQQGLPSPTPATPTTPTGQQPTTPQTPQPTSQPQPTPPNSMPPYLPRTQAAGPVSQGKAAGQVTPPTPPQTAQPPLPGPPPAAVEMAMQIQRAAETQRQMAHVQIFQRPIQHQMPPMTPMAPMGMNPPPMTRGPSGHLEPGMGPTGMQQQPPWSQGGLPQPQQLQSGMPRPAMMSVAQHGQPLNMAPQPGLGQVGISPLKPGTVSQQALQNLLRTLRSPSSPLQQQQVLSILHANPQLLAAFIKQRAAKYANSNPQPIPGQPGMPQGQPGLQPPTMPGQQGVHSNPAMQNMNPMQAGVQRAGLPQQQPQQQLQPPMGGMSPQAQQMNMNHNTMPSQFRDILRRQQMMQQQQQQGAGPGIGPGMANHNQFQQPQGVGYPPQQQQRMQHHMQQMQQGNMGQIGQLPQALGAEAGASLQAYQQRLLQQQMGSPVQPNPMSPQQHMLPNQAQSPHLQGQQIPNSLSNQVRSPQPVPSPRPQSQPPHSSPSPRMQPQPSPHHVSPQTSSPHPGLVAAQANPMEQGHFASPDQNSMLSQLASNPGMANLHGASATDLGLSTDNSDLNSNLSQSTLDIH
UniProt Q92831: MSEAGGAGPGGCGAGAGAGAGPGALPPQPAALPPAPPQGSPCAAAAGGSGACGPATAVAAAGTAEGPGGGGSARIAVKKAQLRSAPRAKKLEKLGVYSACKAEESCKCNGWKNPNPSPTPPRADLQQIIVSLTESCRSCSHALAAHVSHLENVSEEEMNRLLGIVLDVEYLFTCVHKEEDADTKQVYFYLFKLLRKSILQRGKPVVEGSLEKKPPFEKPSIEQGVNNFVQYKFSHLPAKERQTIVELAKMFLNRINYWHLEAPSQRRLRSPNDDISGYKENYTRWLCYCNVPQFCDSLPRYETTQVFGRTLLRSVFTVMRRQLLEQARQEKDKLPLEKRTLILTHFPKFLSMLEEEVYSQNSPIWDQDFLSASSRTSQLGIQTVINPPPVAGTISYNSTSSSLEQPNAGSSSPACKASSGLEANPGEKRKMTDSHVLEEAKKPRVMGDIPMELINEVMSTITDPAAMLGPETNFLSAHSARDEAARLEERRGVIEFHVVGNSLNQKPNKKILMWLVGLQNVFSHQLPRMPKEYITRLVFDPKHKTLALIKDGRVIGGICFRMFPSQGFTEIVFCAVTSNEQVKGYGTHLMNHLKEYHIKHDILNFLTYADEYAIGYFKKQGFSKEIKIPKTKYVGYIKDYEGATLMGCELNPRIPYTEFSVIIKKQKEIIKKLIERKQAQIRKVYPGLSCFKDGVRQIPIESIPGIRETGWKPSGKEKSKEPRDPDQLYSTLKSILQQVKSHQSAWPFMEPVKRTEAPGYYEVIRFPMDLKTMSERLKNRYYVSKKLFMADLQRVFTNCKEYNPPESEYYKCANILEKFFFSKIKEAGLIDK

Tests used:
[1] = target: pyruvate kinase M2 (PKM2), endogenous in HUVECs (human (endogenous in HUVEC)) (UniProt P14618); experiment: co-IP; endogenous PKM2 or PHGDH immunoprecipitated from HUVEC lysates (anti-PKM2, anti-PHGDH) in buffer A (50 mM Tris pH7.4, 150 mM NaCl, 1 mM EDTA, 6 mM sodium deoxycholate, 1% NP-40), 4 °C overnight, immunoblots; also from cells with PHGDH overexpression, PHGDH knockdown or p300 knockdown
[2] = target: p300 immobilized on agarose beads from HeLa cells (human (endogenous in HeLa)) (UniProt Q09472); experiment: co-IP; in vitro: p300 immobilized on agarose beads from HeLa cells with anti-p300, incubated with purified recombinant PKM2 in the presence of increasing amount of purified recombinant PHGDH; both purified
[3] = target: FLAG-PCAF purified from HeLa cells (UniProt Q92831); experiment: co-IP; in vitro: FLAG-PCAF purified from HeLa cells incubated with purified recombinant His-PKM2 in the presence of increasing amount of purified recombinant PHGDH, immunoprecipitated with anti-FLAG beads; both purified
[4] = target: T1, purified recombinant GST-PHGDH (UniProt O43175); experiment: pull-down; GST-PHGDH pre-bound to glutathione beads, incubated with purified His-PKM2 in buffer C (50 mM Tris pH7.4, 150 mM NaCl, 1 mM EDTA, 6 mM sodium deoxycholate, 1% NP-40), 4 °C overnight; called in vitro Co-IP in the text; both purified
T1 sequence: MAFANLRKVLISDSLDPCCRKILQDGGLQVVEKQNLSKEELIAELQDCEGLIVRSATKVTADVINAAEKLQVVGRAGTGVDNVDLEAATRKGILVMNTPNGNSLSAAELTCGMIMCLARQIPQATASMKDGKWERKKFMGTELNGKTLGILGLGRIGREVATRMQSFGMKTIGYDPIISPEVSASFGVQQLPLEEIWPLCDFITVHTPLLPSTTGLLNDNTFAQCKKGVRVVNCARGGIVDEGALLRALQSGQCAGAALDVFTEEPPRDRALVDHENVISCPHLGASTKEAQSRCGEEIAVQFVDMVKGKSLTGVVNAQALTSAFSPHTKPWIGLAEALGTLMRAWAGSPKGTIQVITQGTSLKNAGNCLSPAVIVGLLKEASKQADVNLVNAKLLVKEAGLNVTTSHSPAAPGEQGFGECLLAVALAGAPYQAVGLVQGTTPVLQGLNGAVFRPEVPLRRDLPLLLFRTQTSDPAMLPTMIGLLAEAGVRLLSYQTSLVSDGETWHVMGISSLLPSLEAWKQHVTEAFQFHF

[5] = target: T2, phosphoglycerate dehydrogenase (PHGDH), endogenous in HUVECs (human (endogenous in HUVEC)) (UniProt O43175); experiment: co-IP; endogenous PKM2 or PHGDH immunoprecipitated from HUVEC lysates (anti-PKM2, anti-PHGDH) in buffer A (50 mM Tris pH7.4, 150 mM NaCl, 1 mM EDTA, 6 mM sodium deoxycholate, 1% NP-40), 4 °C overnight, immunoblots; also from cells with PHGDH overexpression, PHGDH knockdown or p300 knockdown
T2 sequence: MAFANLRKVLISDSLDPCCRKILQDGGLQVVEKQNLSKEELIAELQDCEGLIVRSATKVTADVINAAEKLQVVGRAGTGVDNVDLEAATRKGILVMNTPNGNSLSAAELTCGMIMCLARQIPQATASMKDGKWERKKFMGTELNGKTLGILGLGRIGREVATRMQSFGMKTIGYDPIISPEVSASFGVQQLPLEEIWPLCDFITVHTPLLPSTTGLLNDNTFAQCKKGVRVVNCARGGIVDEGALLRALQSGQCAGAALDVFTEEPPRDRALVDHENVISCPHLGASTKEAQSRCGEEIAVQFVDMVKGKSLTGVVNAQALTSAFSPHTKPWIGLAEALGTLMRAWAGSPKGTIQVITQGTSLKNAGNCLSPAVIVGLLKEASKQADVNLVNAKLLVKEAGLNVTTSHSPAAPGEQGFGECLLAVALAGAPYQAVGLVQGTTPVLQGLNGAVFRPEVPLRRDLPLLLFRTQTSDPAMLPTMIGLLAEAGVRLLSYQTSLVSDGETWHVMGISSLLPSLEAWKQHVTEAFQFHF

[6] = target: pyruvate kinase M2 (PKM2), endogenous in HUVECs (human (endogenous in HUVEC)) (UniProt P14618); experiment: as above; remark: listed apart in the source

In the case of “PCAF (p300/CBP-associated factor), endogenous (from UniProt Q92831 1-832)”, the binding [1] is reported as “binds”.

For “acetyltransferase p300, endogenous in HUVECs (from UniProt Q09472 1-2414)”, the binding [1] was “binds”.

“purified recombinant His-PKM2 (from UniProt P14618 1-531)” was tested, and the binding [2] was “binds”, the binding [3] was “binds” and the binding [4] was “binds”.

B1: phosphoserine aminotransferase 1 (PSAT1), endogenous in HUVECs (protein, UniProt Q9Y617 1-370)
chain: MDAPRQVVNFGPGPAKLPHSVLLEIQKELLDYKGVGISVLEMSHRSSDFAKIINNTENLVRELLAVPDNYKVIFLQGGGCGQFSAVPLNLIGLKAGRCADYVVTGAWSAKAAEEAKKFGTINIVHPKLGSYTKIPDPSTWNLNPDASYVYYCANETVHGVEFDFIPDVKGAVLVCDMSSNFLSKPVDVSKFGVIFAGAQKNVGSAGVTVVIVRDDLLGFALRECPSVLEYKVQAGNSSLYNTPPCFSIYVMGLVLEWIKNNGGAAAMEKLSSIKSQTIYEIIDNSQGFYVCPVEPQNRSKMNIPFRIGNAKGDDALEKRFLDKALELNMLSLKGHRSVGGIRASLYNAVTIEDVQKLAAFMKKFLEMHQL
B1 was tested, and the binding [5] was “binds” and the binding [6] was “binds”.

B2: phosphoserine phosphatase (PSPH), endogenous in HUVECs (protein, UniProt P78330 1-225)
chain: MVSHSELRKLFYSADAVCFDVDSTVIREEGIDELAKICGVEDAVSEMTRRAMGGAVPFKAALTERLALIQPSREQVQRLIAEQPPHLTPGIRELVSRLQERNVQVFLISGGFRSIVEHVASKLNIPATNVFANRLKFYFNGEYAGFDETQPTAESGGKGKVIKLLKEKFHFKKIIMIGDGATDMEACPPADAFIGFGGNVIRQQVKDNAKWYITDFVELLGELEE
With B2 the binding [5] was “binds” and the binding [6] was “binds”.
